PubChem BioAssay AID743454 – Peter MacCallum Cancer Centre | 2014
The whole screen tested about 18,000 reagents; this is a random part of them. In the full data, 450 (2.5%) are marked active. 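Single biological run; no consistent viability z cut-off exists, so the class columns, not z-scores, define the calls.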

- Assay: 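Knock-downs lowering viability or raising caspase 3/7 activity in vorinostat-treated resistant cells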 (primary screen)
- Cell system: human HCT116-VR colon cancer cells, selected for vorinostat resistance
- Knock-down reagent: siRNA pool against human genes, 40 nM siRNA pool
- Timing: vorinostat for 24 h, read-out about 72 h after transfection
- Conditions: vorinostat at 2.5 µM final
- Read-out: 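Two measures, CellTiter-Fluor viability and luminescent caspase 3/7 activity, each as fold change against same-plate mock wells, mean of duplicates, then screen-wide robust z-score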
- Reading the numbers: viability robust z-score: higher = more viable cells than screen typical; caspase robust z-score: higher = more caspase 3/7 activity than screen typical
- Rule for the call: 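Hits are knock-downs in viability class RV1/RV2 or caspase class CA1/CA2, excluding ones that killed cells in the no-drug cell-count arm; hits then retested with single siRNAs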

| gene symbol | viability hit class | caspase hit class | viability robust z-score | caspase robust z-score | Call |
| --- | --- | --- | --- | --- | --- |
| PACRG (parkin coregulated) | no change | no change | 0.08 | 1.98 | inactive |
| CTH (cystathionine gamma-lyase) | no change | no change | -0.12 | -0.66 | inactive |
| MT1M (metallothionein 1M) | no change | no change | -0.12 | 1.57 | inactive |
| SELPLG (selectin P ligand) | no change | no change | -1.34 | -0.34 | inactive |
| ABHD17B (abhydrolase domain containing 17B, depalmitoylase) | no change | no change | 0.84 | 0.48 | inactive |
| HOXA4 (homeobox A4) | no change | no change | 0.36 | 1 | inactive |
| AMD1 (adenosylmethionine decarboxylase 1) | no change | no change | -1.68 | -0.46 | inactive |
| CPNE6 (copine 6) | no change | no change | -0.22 | -0.12 | inactive |
| DNMT3L (DNA methyltransferase 3 like) | no change | no change | -0.46 | 1.33 | inactive |
| MAN1A2 (mannosidase alpha class 1A member 2) | no change | no change | 0.8 | 0.34 | inactive |
| PDLIM1 (PDZ and LIM domain 1) | no change | no change | -1.98 | 0.89 | inactive |
| AHCYL2 (adenosylhomocysteinase like 2) | no change | no change | 1.31 | -0.72 | inactive |
| ICAM2 (intercellular adhesion molecule 2) | no change | no change | -1.48 | -0.3 | inactive |
| CFD (complement factor D) | no change | no change | 0 | 0.44 | inactive |
| LPAR2 (lysophosphatidic acid receptor 2) | no change | no change | -0.57 | 1.14 | inactive |
| FTSJ3 (FtsJ RNA 2'-O-methyltransferase 3) | no change | no change | -1.29 | -0.45 | inactive |
| ANKAR (ankyrin and armadillo repeat containing) | no change | no change | 0.29 | 0.32 | inactive |
| SUMO1 (small ubiquitin like modifier 1) | no change | no change | -2.17 | -0.86 | inactive |
| MAPK3 (mitogen-activated protein kinase 3) | no change | no change | 1.15 | 4.71 | inactive |
| TEAD1 (TEA domain transcription factor 1) | no change | no change | -0.84 | -0.26 | inactive |
| LRP8 (LDL receptor related protein 8) | no change | no change | 0.34 | 1.17 | inactive |
| C16orf82 (chromosome 16 open reading frame 82) | no change | no change | 1.27 | -0.12 | inactive |
| SECISBP2 (SECIS binding protein 2) | no change | no change | 0.31 | 0.18 | inactive |
| CAPNS2 (calpain small subunit 2) | no change | no change | -1.06 | 0.12 | inactive |
| CLEC5A (C-type lectin domain containing 5A) | no change | no change | -1.46 | 4.75 | inactive |
| VGLL4 (vestigial like family member 4) | no change | no change | 0.46 | -0.39 | inactive |
| TCEAL2 (transcription elongation factor A like 2) | no change | no change | 1.18 | -0.11 | inactive |
| KIRREL1 (kirre like nephrin family adhesion molecule 1) | no change | no change | -0.62 | 2.92 | inactive |
| AMACR (alpha-methylacyl-CoA racemase) | no change | no change | -0.82 | -0.13 | inactive |
| CPNE9 (copine family member 9) | no change | no change | 1.62 | -0.86 | inactive |
| TAPT1 (transmembrane anterior posterior transformation 1) | no change | no change | -0.28 | 0.36 | inactive |
| TMOD2 (tropomodulin 2) | no change | no change | -1.43 | 0.13 | inactive |
| DCAF10 (DDB1 and CUL4 associated factor 10) | no change | no change | 0.62 | -0.31 | inactive |
| KLF16 (KLF transcription factor 16) | no change | no change | -3.12 | -0.36 | inactive |
| LRRC3B (leucine rich repeat containing 3B) | no change | no change | -1.17 | 0.56 | inactive |
| STIM1 (stromal interaction molecule 1) | no change | no change | 0.84 | -0.52 | inactive |
| POFUT3 (protein O-fucosyltransferase 3) | no change | no change | -0.75 | 1.52 | inactive |
| CTBP1-DT (CTBP1 divergent transcript) | no change | no change | -0.03 | -0.82 | inactive |
| YPEL2 (yippee like 2) | no change | no change | 1.29 | -0.32 | inactive |
| PSG4 (pregnancy specific beta-1-glycoprotein 4) | no change | no change | 0.15 | 0.07 | inactive |
| SCAMP1 | no change | no change | -0.14 | -0.18 | inactive |
| LOC401052 (retired record) | no change | no change | 0.16 | -0.5 | inactive |
| KDM3B (lysine demethylase 3B) | no change | no change | 0.22 | -0.05 | inactive |
| VNN2 (vanin 2) | no change | no change | 1.38 | 0.05 | inactive |
| EFCAB5 (EF-hand calcium binding domain 5) | no change | no change | 0.18 | -0.45 | inactive |
| PCDHB6 (protocadherin beta 6) | no change | no change | 0.83 | -0.72 | inactive |
| PLAC9 (placenta associated 9) | no change | no change | 1.54 | -0.01 | inactive |
| ZNF581 (zinc finger protein 581) | no change | no change | 0.12 | 0.5 | inactive |
| MED12 (mediator complex subunit 12) | no change | no change | 0.25 | -1.01 | inactive |
| U2AF2 (U2 small nuclear RNA auxiliary factor 2) | no change | no change | -2.72 | -0.48 | inactive |
| GP5 (glycoprotein V platelet) | no change | no change | -0.04 | -0.62 | inactive |
| FGFR1 (fibroblast growth factor receptor 1) | no change | no change | -0.55 | 1.2 | inactive |
| STK33 (serine/threonine kinase 33) | no change | no change | -0.07 | -0.31 | inactive |
| EDARADD (EDAR associated via death domain) | no change | no change | 0.82 | 0.05 | inactive |
| CEMIP (cell migration inducing hyaluronidase 1) | no change | no change | 1.36 | -0.64 | inactive |
| POM121 (POM121 transmembrane nucleoporin) | no change | no change | -0.3 | 0.34 | inactive |
| OR2L8 (olfactory receptor family 2 subfamily L member 8) | no change | no change | -0.3 | 0 | inactive |
| TDO2 (tryptophan 2,3-dioxygenase) | no change | no change | 0.6 | 0.14 | inactive |
| EPAS1 (endothelial PAS domain protein 1) | no change | no change | 0.77 | -0.26 | inactive |
| MINK1 (misshapen like kinase 1) | no change | no change | -1.06 | -0.29 | inactive |
| FAU (FAU ubiquitin like and ribosomal protein S30 fusion) | no change | no change | -4.66 | -1.93 | inactive |
| POLD4 (DNA polymerase delta 4, accessory subunit) | no change | no change | -1.42 | -0.64 | inactive |
| SUPT7L (SPT7 like, STAGA complex subunit gamma) | no change | no change | 0.23 | -1.01 | inactive |
| PLA2G4E (phospholipase A2 group IVE) | no change | no change | 0.62 | -0.59 | inactive |
| LRP6 (LDL receptor related protein 6) | no change | no change | 1.66 | 0.55 | inactive |
| NFKBIE (NFKB inhibitor epsilon) | no change | no change | -0.73 | -0.2 | inactive |
| ZKSCAN1 (zinc finger with KRAB and SCAN domains 1) | no change | no change | 1.05 | 0.29 | inactive |
| UNCX (UNC homeobox) | no change | no change | -0.13 | 1.99 | inactive |
| TIMMDC1 | no change | no change | -0.49 | 0.06 | inactive |
| C22orf23 (chromosome 22 open reading frame 23) | no change | no change | 0.05 | 0.2 | inactive |
| MT3 (metallothionein 3) | RV2 (reduced viability) | no change | -3.12 | 3.59 | active |
| PCDH20 (protocadherin 20) | no change | no change | 0.1 | -1.19 | inactive |
| S100P (S100 calcium binding protein P) | no change | no change | 0.45 | 2 | inactive |

A few values from above.
PLA2G4E (phospholipase A2 group IVE), viability hit class → no change
Under “Call”, U2AF2 (U2 small nuclear RNA auxiliary factor 2) shows inactive
Value for AMACR (alpha-methylacyl-CoA racemase) under “caspase hit class”: no change
SUMO1 (small ubiquitin like modifier 1), viability robust z-score = -2.17
PCDHB6 (protocadherin beta 6), Call: inactive
KDM3B (lysine demethylase 3B), viability hit class = no change
